Measurements from the supplement of paper PMC10849652.
This is one part of the list.

Chains of the proteins cited; added tags and fusions are not shown. Lines headed by an entry give the natural chain unless they say otherwise; changes in a name come on top.
UniProt Q6P1Q0: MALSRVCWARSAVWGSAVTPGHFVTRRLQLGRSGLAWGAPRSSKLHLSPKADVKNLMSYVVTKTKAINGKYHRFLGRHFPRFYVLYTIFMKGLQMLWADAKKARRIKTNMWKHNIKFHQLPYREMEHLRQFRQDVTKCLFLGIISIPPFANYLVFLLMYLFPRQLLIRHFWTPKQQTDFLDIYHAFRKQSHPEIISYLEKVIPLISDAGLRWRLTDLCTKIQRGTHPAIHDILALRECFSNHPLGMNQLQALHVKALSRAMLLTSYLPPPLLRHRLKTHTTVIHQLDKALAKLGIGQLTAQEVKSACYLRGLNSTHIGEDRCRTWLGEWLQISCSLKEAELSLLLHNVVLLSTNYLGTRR
UniProt Q6P9F7: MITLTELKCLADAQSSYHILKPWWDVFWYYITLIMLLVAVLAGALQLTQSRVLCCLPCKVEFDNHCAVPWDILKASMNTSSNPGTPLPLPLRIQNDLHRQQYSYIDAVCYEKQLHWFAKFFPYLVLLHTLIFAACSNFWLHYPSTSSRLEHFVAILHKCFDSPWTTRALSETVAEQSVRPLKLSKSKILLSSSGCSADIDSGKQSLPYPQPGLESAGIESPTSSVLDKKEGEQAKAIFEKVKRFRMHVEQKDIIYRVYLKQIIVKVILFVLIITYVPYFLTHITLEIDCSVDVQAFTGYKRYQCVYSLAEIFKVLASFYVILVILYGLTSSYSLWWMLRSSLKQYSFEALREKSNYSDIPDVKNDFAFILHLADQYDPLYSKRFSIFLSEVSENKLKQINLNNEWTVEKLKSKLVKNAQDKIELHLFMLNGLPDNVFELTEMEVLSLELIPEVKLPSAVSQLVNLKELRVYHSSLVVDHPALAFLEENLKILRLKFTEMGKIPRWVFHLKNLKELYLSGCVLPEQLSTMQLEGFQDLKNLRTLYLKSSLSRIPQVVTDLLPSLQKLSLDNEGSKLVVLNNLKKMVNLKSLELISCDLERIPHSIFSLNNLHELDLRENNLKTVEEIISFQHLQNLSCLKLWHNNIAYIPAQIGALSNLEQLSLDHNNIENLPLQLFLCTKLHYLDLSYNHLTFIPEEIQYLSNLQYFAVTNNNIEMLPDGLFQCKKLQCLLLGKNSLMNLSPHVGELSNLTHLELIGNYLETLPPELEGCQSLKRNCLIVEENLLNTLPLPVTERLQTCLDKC
UniProt Q9H6V9: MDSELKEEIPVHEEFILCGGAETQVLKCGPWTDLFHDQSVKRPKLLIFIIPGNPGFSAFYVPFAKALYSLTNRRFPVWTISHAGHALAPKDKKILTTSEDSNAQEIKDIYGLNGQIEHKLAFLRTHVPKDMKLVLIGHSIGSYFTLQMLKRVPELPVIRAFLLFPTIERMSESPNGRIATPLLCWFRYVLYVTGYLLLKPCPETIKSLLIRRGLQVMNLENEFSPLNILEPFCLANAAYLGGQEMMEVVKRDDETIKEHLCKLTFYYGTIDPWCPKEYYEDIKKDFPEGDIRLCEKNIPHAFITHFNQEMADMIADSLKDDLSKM
UniProt Q9H0V9: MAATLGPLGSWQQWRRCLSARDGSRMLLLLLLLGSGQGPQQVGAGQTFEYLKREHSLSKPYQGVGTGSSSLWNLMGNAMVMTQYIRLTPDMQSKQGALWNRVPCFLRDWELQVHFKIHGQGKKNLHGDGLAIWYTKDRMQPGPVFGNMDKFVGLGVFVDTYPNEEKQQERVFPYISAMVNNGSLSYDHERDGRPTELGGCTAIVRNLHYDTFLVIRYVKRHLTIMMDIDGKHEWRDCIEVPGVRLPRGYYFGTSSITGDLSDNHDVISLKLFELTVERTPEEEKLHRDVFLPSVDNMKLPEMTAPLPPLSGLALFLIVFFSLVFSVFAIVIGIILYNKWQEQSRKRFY
UniProt Q9Y4W2: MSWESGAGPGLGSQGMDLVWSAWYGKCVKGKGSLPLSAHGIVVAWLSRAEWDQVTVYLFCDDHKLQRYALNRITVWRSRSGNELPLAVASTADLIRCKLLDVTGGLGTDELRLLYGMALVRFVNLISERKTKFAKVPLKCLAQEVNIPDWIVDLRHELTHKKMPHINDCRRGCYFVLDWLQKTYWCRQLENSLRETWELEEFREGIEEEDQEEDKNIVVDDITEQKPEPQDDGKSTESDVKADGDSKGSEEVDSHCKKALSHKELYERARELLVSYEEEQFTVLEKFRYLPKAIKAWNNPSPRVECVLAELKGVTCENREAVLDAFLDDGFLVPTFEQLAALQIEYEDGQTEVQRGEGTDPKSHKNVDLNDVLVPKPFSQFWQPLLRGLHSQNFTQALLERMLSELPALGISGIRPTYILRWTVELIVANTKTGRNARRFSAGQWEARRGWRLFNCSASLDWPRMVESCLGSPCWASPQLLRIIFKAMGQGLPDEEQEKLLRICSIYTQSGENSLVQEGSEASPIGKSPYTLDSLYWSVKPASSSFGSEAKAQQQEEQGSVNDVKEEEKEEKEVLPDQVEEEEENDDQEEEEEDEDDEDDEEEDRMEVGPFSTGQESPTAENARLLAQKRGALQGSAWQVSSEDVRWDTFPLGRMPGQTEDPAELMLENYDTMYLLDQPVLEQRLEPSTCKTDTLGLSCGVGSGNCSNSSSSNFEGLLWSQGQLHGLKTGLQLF
UniProt Q9UFC0: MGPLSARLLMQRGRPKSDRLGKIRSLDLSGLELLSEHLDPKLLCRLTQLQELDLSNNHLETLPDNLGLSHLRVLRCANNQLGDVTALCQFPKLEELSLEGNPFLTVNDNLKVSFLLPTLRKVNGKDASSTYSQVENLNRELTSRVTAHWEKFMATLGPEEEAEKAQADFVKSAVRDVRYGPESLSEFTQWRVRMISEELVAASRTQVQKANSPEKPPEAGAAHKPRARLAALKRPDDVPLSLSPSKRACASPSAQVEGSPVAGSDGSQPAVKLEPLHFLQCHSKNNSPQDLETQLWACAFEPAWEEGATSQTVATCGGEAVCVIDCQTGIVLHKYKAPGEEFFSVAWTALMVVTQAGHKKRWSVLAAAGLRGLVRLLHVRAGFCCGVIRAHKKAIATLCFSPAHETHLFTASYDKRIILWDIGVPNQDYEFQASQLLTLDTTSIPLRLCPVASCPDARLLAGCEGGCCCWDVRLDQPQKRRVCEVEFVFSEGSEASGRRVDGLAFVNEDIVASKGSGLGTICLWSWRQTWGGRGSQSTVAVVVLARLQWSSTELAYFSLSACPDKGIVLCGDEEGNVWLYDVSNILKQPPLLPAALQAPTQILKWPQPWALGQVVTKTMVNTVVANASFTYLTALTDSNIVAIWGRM
UniProt Q9BX40: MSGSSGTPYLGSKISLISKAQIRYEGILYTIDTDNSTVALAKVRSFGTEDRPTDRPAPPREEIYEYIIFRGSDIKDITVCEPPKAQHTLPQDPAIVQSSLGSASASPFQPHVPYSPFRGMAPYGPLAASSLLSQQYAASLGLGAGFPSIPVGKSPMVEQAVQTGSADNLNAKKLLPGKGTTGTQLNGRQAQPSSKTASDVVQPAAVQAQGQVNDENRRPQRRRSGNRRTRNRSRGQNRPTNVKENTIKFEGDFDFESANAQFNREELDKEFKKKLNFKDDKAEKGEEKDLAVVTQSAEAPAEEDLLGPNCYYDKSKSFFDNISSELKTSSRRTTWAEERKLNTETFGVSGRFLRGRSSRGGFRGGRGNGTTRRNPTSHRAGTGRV
UniProt Q9NUP9: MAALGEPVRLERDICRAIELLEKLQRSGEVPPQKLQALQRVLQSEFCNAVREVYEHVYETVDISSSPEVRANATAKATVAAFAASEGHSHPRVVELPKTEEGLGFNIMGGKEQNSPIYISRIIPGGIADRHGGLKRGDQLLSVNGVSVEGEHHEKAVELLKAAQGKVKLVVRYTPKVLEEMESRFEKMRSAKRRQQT
UniProt Q9UHB6: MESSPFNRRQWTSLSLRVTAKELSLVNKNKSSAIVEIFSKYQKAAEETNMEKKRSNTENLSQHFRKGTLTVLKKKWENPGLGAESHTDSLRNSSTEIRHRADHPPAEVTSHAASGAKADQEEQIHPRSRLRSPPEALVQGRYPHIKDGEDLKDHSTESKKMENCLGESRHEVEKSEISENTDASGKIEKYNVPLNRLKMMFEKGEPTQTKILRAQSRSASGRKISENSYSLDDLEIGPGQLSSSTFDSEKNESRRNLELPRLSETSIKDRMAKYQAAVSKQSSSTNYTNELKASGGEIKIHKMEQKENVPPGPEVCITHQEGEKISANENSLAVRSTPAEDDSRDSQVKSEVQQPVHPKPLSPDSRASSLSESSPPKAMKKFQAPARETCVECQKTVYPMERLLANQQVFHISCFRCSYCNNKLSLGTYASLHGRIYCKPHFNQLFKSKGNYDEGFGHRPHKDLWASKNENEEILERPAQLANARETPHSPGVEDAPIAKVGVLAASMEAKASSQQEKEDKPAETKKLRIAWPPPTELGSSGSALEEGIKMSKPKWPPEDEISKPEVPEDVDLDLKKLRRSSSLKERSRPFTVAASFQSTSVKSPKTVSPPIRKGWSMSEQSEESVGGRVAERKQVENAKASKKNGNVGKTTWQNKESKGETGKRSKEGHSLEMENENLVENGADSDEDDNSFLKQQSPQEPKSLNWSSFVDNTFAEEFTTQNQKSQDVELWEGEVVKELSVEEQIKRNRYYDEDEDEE
UniProt P18858, whole entry, looked up: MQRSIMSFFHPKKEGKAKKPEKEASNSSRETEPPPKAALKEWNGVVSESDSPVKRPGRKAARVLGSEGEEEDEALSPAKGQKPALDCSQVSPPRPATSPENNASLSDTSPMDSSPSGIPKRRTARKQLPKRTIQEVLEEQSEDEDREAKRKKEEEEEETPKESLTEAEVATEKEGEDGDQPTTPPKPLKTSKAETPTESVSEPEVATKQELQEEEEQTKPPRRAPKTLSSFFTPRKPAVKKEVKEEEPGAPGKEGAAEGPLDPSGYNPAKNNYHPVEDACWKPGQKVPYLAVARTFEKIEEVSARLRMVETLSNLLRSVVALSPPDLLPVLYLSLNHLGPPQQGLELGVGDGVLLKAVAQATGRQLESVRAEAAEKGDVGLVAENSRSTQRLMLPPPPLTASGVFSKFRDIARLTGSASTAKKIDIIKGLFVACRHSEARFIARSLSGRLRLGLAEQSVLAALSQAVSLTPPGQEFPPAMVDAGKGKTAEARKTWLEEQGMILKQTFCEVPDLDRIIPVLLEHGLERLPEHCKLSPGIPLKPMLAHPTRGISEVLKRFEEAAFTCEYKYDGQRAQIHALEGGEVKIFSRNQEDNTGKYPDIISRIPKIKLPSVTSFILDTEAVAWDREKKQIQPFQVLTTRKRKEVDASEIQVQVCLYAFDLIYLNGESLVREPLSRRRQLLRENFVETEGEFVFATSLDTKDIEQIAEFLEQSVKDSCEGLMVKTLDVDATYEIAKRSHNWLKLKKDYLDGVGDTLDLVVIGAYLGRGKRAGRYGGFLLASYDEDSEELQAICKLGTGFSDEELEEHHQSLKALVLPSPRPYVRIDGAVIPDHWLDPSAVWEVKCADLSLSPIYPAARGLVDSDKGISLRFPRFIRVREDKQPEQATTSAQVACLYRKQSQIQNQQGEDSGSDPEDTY
UniProt Q9NUN5: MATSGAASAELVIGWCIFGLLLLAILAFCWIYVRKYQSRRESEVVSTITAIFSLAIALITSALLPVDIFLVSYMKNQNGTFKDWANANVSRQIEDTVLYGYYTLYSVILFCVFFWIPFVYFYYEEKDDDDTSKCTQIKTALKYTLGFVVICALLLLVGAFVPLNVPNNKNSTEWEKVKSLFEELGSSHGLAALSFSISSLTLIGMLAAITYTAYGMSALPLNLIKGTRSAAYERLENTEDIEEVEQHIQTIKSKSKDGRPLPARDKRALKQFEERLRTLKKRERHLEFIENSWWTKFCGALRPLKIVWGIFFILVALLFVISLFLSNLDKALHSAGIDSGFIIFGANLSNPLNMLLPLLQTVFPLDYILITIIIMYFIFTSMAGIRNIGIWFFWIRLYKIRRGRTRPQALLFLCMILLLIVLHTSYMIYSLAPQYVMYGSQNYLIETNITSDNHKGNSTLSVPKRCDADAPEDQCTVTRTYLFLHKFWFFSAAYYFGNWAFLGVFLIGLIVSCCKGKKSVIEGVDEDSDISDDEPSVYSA
UniProt Q5TKA1: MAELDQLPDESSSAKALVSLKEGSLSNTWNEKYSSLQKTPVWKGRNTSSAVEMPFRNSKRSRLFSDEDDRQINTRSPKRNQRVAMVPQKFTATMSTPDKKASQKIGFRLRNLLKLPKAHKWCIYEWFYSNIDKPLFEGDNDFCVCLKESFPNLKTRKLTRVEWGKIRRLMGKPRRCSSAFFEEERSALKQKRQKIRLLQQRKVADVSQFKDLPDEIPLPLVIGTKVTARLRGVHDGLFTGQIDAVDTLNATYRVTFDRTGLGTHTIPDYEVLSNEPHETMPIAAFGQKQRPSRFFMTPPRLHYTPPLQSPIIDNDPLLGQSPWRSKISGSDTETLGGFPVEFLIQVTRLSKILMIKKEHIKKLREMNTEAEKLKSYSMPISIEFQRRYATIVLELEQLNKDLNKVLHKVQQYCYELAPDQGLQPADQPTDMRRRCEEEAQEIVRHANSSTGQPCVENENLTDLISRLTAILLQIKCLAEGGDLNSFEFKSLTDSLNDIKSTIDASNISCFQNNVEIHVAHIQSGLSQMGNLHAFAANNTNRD

These targets were tested with Cc1nc(Nc2ncc(C(=O)Nc3c(C)cccc3Cl)s2)cc(N2CCN(CCO)CC2)n1 [dasatinib] (assay: log2 fold change, soluble protein after heating vs DMSO (PISA); higher = thermal stabilisation; K562 lysate, 10 uM; active = over 0.2 and 3.5 SD of the protein, either way, in both replicates (recomputed)).
Method in brief: (§1)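 Thermal stability, expressed as log-two fold change relative to solvent controls, is given from duplicates. Crude K562 extract in PBS pH 7.4 with 1 mM MgCl2, at 1 mg/mL protein, was treated with 10 μM compound for 30 min and heated in aliquots for 3 min across 48°C-58°C. After pooling, adjustment to 0.5% NP-40 at 4°C and centrifugation at 21,000xg for 90 min, supernatant protein was measured by TMTpro 16plex LC-MS/MS with channel sums equalised.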

log2 fold change, inactive:
LRPPRC (UniProt P42704) -0.062
LETMD1 isoform 7 (UniProt Q6P1Q0) -0.174
LARS2 (UniProt Q15031) -0.075
LMNB2 (UniProt Q03252) -0.003
LCLAT1 (UniProt Q6UWP7) 0.007
LEO1 (UniProt Q8WVC0) 0.003
LCMT2 (UniProt O60294) -0.22
LRRC8B (UniProt Q6P9F7) -0.081
LCMT1 (UniProt Q9UIC8) -0.002
LRBA, A0A494BZW2 -0.099
LMO2 isoform 3 (UniProt P25791) -0.29
LRRC8C (UniProt Q8TDW0) -0.064
LDAH isoform 2 (UniProt Q9H6V9) -0.071
LMAN2L isoform 2 (UniProt Q9H0V9) -0.035
LRCH4 (UniProt O75427) -0.072
LCP2 (UniProt Q13094) 0.02
LAS1L (UniProt Q9Y4W2) 0.025
LRWD1 (UniProt Q9UFC0) -0.055
LSM14B isoform 2 (UniProt Q9BX40) -0.001
LGALS8 isoform 2 (UniProt O00214) 0.025
LIMD1 (UniProt Q9UGP4) 0.034
LDHA isoform 3 (UniProt P00338) 0.033
LIN7C (UniProt Q9NUP9) 0.004
LRRC8D (UniProt Q7L1W4) -0.032
LIMA1 isoform 4 (UniProt Q9UHB6) 0.033
LRRC57 (UniProt Q8N9N7) 0.01
LMAN1 (UniProt P49257) 0.041
LMNB1 (UniProt P20700) -0.025
LSM2 (UniProt Q9Y333) -0.009
LINS1 (UniProt Q8NG48) 0.059
LIG1 (UniProt P18858) 0.022
LMBRD1 (UniProt Q9NUN5) -0.032
LRRCC1 (UniProt Q9C099) 0.104
LRCH3 (UniProt Q96II8) -0.095
LIG4 (UniProt P49917) 0.018
LRRC59 (UniProt Q96AG4) -0.013
LSR (UniProt Q86X29) 0.037
LIN9 isoform 2 (UniProt Q5TKA1) -0.043
LNPK (UniProt Q9C0E8) 0.006

Each target was assayed with Cc1ncc(-c2ccnc(Nc3ccc(S(C)(=O)=O)cc3)n2)n1C(C)C in the same assay as above.
Method in brief: as §1

log2 fold change, inactive:
LRPPRC (UniProt P42704) 0.012
LETMD1 isoform 7 (UniProt Q6P1Q0) -0.038
LARS2 (UniProt Q15031) -0.008
LMNB2 (UniProt Q03252) -0.02
LCLAT1 (UniProt Q6UWP7) -0.011
LEO1 (UniProt Q8WVC0) 0.005
LCMT2 (UniProt O60294) -0.056
LRRC8B (UniProt Q6P9F7) 0.006
LCMT1 (UniProt Q9UIC8) -0.023
LRBA, A0A494BZW2 0.051
LMO2 isoform 3 (UniProt P25791) 0.251
LRRC8C (UniProt Q8TDW0) 0.101
LDAH isoform 2 (UniProt Q9H6V9) -0.003
LMAN2L isoform 2 (UniProt Q9H0V9) 0.073
LRCH4 (UniProt O75427) 0.011
LCP2 (UniProt Q13094) 0.021
LAS1L (UniProt Q9Y4W2) 0.029
LRWD1 (UniProt Q9UFC0) 0.017
LSM14B isoform 2 (UniProt Q9BX40) 0.032
LGALS8 isoform 2 (UniProt O00214) 0.03
LIMD1 (UniProt Q9UGP4) 0.024
LDHA isoform 3 (UniProt P00338) -0.044
LIN7C (UniProt Q9NUP9) -0.025
LRRC8D (UniProt Q7L1W4) 0.038
LIMA1 isoform 4 (UniProt Q9UHB6) -0.008
LRRC57 (UniProt Q8N9N7) -0.023
LMAN1 (UniProt P49257) -0.002
LMNB1 (UniProt P20700) 0.003
LSM2 (UniProt Q9Y333) 0.055
LINS1 (UniProt Q8NG48) -0.101
LIG1 (UniProt P18858) 0
LMBRD1 (UniProt Q9NUN5) -0.008
LRRCC1 (UniProt Q9C099) 0.101
LRCH3 (UniProt Q96II8) 0.064
LIG4 (UniProt P49917) -0.008
LRRC59 (UniProt Q96AG4) 0.011
LSR (UniProt Q86X29) -0.094
LIN9 isoform 2 (UniProt Q5TKA1) 0.076
LNPK (UniProt Q9C0E8) -0.057
